Whole data set: some 33,000 sequences, median “E-score (-0.5 to 0.5)” near -0.0014, cut for the highest 2% near 0.25. The list shows a part of the results.
Each sequence was assayed against T1, Cad1 (UniProt P24813) (assay: PBM E-score (8-mer binding enrichment) (E-score (-0.5 to 0.5)); higher = stronger / more preferred TF binding). Conditions: protein concentration: 100 nM; construct: GST-full length.
T1 sequence: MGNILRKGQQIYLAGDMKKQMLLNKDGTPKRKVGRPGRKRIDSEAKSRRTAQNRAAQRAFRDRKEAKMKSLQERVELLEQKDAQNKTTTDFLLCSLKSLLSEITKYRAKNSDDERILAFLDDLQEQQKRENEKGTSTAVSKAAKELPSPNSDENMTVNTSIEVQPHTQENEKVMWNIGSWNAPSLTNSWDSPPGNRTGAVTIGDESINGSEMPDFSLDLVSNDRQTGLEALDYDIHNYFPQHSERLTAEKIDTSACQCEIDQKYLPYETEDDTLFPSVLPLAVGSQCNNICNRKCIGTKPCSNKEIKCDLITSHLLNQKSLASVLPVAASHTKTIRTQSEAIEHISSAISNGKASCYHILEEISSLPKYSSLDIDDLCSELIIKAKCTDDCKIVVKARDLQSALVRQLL
Outline: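 E-scores (a modified Wilcoxon-Mann-Whitney statistic) were assigned by the Universal PBM Analysis Suite to every ungapped eight-base word pooled with its reverse complement. The input came from universal all-10-mer Agilent arrays made double-stranded by primer extension and probed with GST-tagged yeast transcription factors at about 100-200 nM. Fluorescent anti-GST detected bound protein, and masliner normalised the scans.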
For ATAGCCAC, the “PBM E-score” value was 0.0315.
In the case of TATAGAAA, the “PBM E-score” value is reported as -0.0962.
AAAGTACC was tested, and the “PBM E-score” value was -0.0128.
In the case of CCTCCGCG, the “PBM E-score” value is reported as -0.128.
With AGACCGTC the “PBM E-score” value was -0.153.
With AGTCAGTG the “PBM E-score” value was -0.0342.
With AGGAAACC the “PBM E-score” value was 0.0272.
ACACGGGG was tested, and the “PBM E-score” value was -0.071.
GACGGAAA was tested, and the “PBM E-score” value was 0.195.
CTTGCCCA was tested, and the “PBM E-score” value was -0.0602.
In the case of CCGTAAAA, the “PBM E-score” value is reported as 0.0221.
In the case of GGGTAAAA, the “PBM E-score” value is reported as 0.15.
With AAATTTCG the “PBM E-score” value was 0.232.
With AGCAGCCT the “PBM E-score” value was -0.0994.
In the case of CTCTTACC, the “PBM E-score” value is reported as 0.112.
TCGTCTCA was tested, and the “PBM E-score” value was 0.0202.
In the case of GCATTCGA, the “PBM E-score” value is reported as 0.14.
CAGCAAAA was tested, and the “PBM E-score” value was 0.098.
In the case of CCCCCGCG, the “PBM E-score” value is reported as -0.264.
CTCCTCTA was tested, and the “PBM E-score” value was -0.193.
CACCAACG was tested, and the “PBM E-score” value was 0.055.
AAAGCTAC was tested, and the “PBM E-score” value was -0.187.
For CAGTAAAG, the “PBM E-score” value was -0.124.
In the case of GGACGACA, the “PBM E-score” value is reported as 0.227.
GGTAGTGA was tested, and the “PBM E-score” value was -0.0646.
For CGCAGAAA, the “PBM E-score” value was 0.106.
In the case of AACGTTTC, the “PBM E-score” value is reported as 0.0428.
In the case of ATACTACA, the “PBM E-score” value is reported as 0.264.
With AACTTAAA the “PBM E-score” value was 0.118.
CACCAGCG was tested, and the “PBM E-score” value was -0.116.
ATTGGCCC was tested, and the “PBM E-score” value was -0.285.
With CCGCGGAC the “PBM E-score” value was 0.129.
AACACTGT was tested, and the “PBM E-score” value was 0.0459.
In the case of AATGAGAG, the “PBM E-score” value is reported as 0.0346.
GAAGAGTC was tested, and the “PBM E-score” value was -0.168.
CCCTGATA was tested, and the “PBM E-score” value was -0.155.
In the case of ACGAGGGC, the “PBM E-score” value is reported as -0.0358.
GCCTCATA was tested, and the “PBM E-score” value was -0.172.
In the case of AGGGCGAG, the “PBM E-score” value is reported as -0.256.
With AGTAATCC the “PBM E-score” value was 0.229.
In the case of ATGTTAAA, the “PBM E-score” value is reported as 0.192.
With CATTGCCC the “PBM E-score” value was -0.203.
For ACGGATGG, the “PBM E-score” value was -0.0904.
In the case of GACAGCAA, the “PBM E-score” value is reported as 0.0762.
In the case of ACTGGTCG, the “PBM E-score” value is reported as -0.195.
With CTGGACCC the “PBM E-score” value was -0.227.
For ACGATCTA, the “PBM E-score” value was -0.226.
ACTCAAGC was tested, and the “PBM E-score” value was 0.0552.
In the case of GATCGCAC, the “PBM E-score” value is reported as 0.0818.
With CGGTAAAG the “PBM E-score” value was 0.103.
With GATGTAGC the “PBM E-score” value was -0.234.
For GGAAGTCC, the “PBM E-score” value was -0.16.
For ATCAGACC, the “PBM E-score” value was -0.184.
With AATATGCA the “PBM E-score” value was 0.0568.
For ATCGCAAC, the “PBM E-score” value was 0.0206.
AATGAGCT was tested, and the “PBM E-score” value was 0.0384.
With TCTCACAA the “PBM E-score” value was 0.0473.
With AAAGGCTC the “PBM E-score” value was -0.274.
For ACCTCTTA, the “PBM E-score” value was 0.153.
For CAGTTGGA, the “PBM E-score” value was -0.242.
For CGTCGATA, the “PBM E-score” value was 0.119.
ATCAAAAC was tested, and the “PBM E-score” value was 0.00993.
In the case of GACTATCA, the “PBM E-score” value is reported as -0.0632.
With CTGATTCA the “PBM E-score” value was 0.155.
In the case of ATTTATCC, the “PBM E-score” value is reported as 0.172.
In the case of TAAAATTA, the “PBM E-score” value is reported as 0.297.
For AGAACCCG, the “PBM E-score” value was -0.174.
In the case of ATCTCTAA, the “PBM E-score” value is reported as -0.0315.
In the case of CCTTACGA, the “PBM E-score” value is reported as 0.00401.
TCATAACA was tested, and the “PBM E-score” value was 0.182.
ACAGATCA was tested, and the “PBM E-score” value was -0.0188.
For GGCGTGGA, the “PBM E-score” value was -0.128.
In the case of GAAATTAA, the “PBM E-score” value is reported as 0.295.
In the case of CACTCTCA, the “PBM E-score” value is reported as -0.0491.
With CACATAGA the “PBM E-score” value was -0.0808.
In the case of CACAGACC, the “PBM E-score” value is reported as 0.0247.
In the case of AATCTAGC, the “PBM E-score” value is reported as 0.08.
GCATCAGC was tested, and the “PBM E-score” value was 0.0599.
For TCCCAAAA, the “PBM E-score” value was 0.117.
With TAGCATCA the “PBM E-score” value was 0.137.
In the case of CTCCGTTC, the “PBM E-score” value is reported as 0.059.
In the case of AGCAACTC, the “PBM E-score” value is reported as -0.0101.
In the case of CGTCTCGC, the “PBM E-score” value is reported as 0.017.
With ACGGCCAA the “PBM E-score” value was 0.0134.
With AATCTGAA the “PBM E-score” value was -0.0163.
In the case of CAAGCAGG, the “PBM E-score” value is reported as -0.133.
With CTACCACC the “PBM E-score” value was -0.249.
In the case of GTGACCCA, the “PBM E-score” value is reported as -0.0539.
With CGTGCACG the “PBM E-score” value was 0.106.
ATCCGCGG was tested, and the “PBM E-score” value was 0.219.
For CCACCACC, the “PBM E-score” value was -0.089.
AATTGAAT was tested, and the “PBM E-score” value was 0.108.
For CGACCACC, the “PBM E-score” value was -0.0864.
For GATGTTTA, the “PBM E-score” value was 0.196.
For ATAATAGA, the “PBM E-score” value was 0.00523.
AATCGAGT was tested, and the “PBM E-score” value was 0.0822.
CATACATA was tested, and the “PBM E-score” value was 0.161.
With AGACAGGC the “PBM E-score” value was -0.133.
With AAGGTCCT the “PBM E-score” value was -0.13.
For ATACACGA, the “PBM E-score” value was -0.117.
AGTGTTCG was tested, and the “PBM E-score” value was 0.113.
In the case of AATAACGA, the “PBM E-score” value is reported as 0.217.
With CGATACCC the “PBM E-score” value was -0.118.
In the case of ACAGCTAT, the “PBM E-score” value is reported as -0.0503.
With CCGTCCTA the “PBM E-score” value was -0.176.
With GCTGTTAA the “PBM E-score” value was 0.194.
In the case of CAGTGACG, the “PBM E-score” value is reported as -0.0082.
For ACGCGTTG, the “PBM E-score” value was 0.0693.
In the case of CCAGTTCG, the “PBM E-score” value is reported as 0.0761.
With AGGAATCC the “PBM E-score” value was -0.0411.
With CTTACGCC the “PBM E-score” value was 0.109.
With ATCGGGTA the “PBM E-score” value was -0.149.
TACATCGA was tested, and the “PBM E-score” value was 0.0368.
ACGCTGAC was tested, and the “PBM E-score” value was 0.3.
For GTACCAAC, the “PBM E-score” value was 0.0794.
With ATCGAAAC the “PBM E-score” value was 0.0575.
For GCCTAAAA, the “PBM E-score” value was -0.11.
In the case of CCTGCGCA, the “PBM E-score” value is reported as -0.153.
With CAGGCCCA the “PBM E-score” value was -0.168.
AGATGTGA was tested, and the “PBM E-score” value was 0.108.
For AAGCAATT, the “PBM E-score” value was 0.141.
In the case of TATGAAGA, the “PBM E-score” value is reported as 0.117.
GCATTTTA was tested, and the “PBM E-score” value was 0.199.
With CGTGTGAG the “PBM E-score” value was -0.0767.
With GAATGATA the “PBM E-score” value was 0.223.
In the case of AAAACTCA, the “PBM E-score” value is reported as 0.151.
For ACGGCACT, the “PBM E-score” value was 0.0453.
With CATCGACC the “PBM E-score” value was 0.0718.
For CTTTCGCA, the “PBM E-score” value was -0.016.
In the case of ATCTAAAT, the “PBM E-score” value is reported as 0.174.
With CTTCGGTC the “PBM E-score” value was 0.0799.
In the case of CGCCGGAG, the “PBM E-score” value is reported as -0.124.
In the case of AACTAAAC, the “PBM E-score” value is reported as 0.0556.
With GCCATCGA the “PBM E-score” value was 0.129.
In the case of CAGGAGGC, the “PBM E-score” value is reported as -0.167.
For CGGTCGTA, the “PBM E-score” value was -0.123.
In the case of GCAAAAGC, the “PBM E-score” value is reported as 0.0393.
For GGGGTCCA, the “PBM E-score” value was -0.257.
ACGAGGCA was tested, and the “PBM E-score” value was -0.0231.
In the case of CAAGGTAG, the “PBM E-score” value is reported as -0.0118.
In the case of CACGAGGC, the “PBM E-score” value is reported as 0.0813.
With CGGCAAAA the “PBM E-score” value was -0.0316.
For GCCAACCC, the “PBM E-score” value was -0.118.
For GAGGTTAA, the “PBM E-score” value was -0.0435.
ATTTTATC was tested, and the “PBM E-score” value was 0.156.
For AGAGGCCC, the “PBM E-score” value was -0.288.
AGCGATTC was tested, and the “PBM E-score” value was -0.021.
ACTCCTTG was tested, and the “PBM E-score” value was -0.0525.
With ACGCTACC the “PBM E-score” value was -0.199.
With AAATACGA the “PBM E-score” value was 0.159.
In the case of CTGCTACC, the “PBM E-score” value is reported as -0.0444.
In the case of CCATAGTA, the “PBM E-score” value is reported as 0.0614.
For AGTGAACG, the “PBM E-score” value was -0.0194.
In the case of ATCGTGAC, the “PBM E-score” value is reported as 0.0186.
CAATTACC was tested, and the “PBM E-score” value was -0.0374.
For GCTTAGTA, the “PBM E-score” value was 0.344.
With ATTCTCGA the “PBM E-score” value was 0.198.
GAAATGAC was tested, and the “PBM E-score” value was 0.154.
With AATTTTGC the “PBM E-score” value was 0.181.
In the case of AAGCCCTG, the “PBM E-score” value is reported as -0.149.
For AATATGCG, the “PBM E-score” value was 0.154.
With CCACTATA the “PBM E-score” value was 0.146.
In the case of GTTTCCGA, the “PBM E-score” value is reported as 0.121.
CCCATTCG was tested, and the “PBM E-score” value was -0.0505.
With GCCGGAGC the “PBM E-score” value was -0.255.
In the case of GCAGGACC, the “PBM E-score” value is reported as -0.23.
CCATATGC was tested, and the “PBM E-score” value was 0.132.
CAGCATCG was tested, and the “PBM E-score” value was -0.0989.
For AGGGATTC, the “PBM E-score” value was 0.0269.
CGCTGGCA was tested, and the “PBM E-score” value was 0.0579.
With CCTATTAG the “PBM E-score” value was 0.0946.
CCCCATAA was tested, and the “PBM E-score” value was -0.117.
